Laboratory results taken from article PMC4015952.

Biological target: T1, cellular AIMP1/p43 in HEK 293 cells (human (endogenous in HEK 293)) (UniProt Q12904)
T1 sequence: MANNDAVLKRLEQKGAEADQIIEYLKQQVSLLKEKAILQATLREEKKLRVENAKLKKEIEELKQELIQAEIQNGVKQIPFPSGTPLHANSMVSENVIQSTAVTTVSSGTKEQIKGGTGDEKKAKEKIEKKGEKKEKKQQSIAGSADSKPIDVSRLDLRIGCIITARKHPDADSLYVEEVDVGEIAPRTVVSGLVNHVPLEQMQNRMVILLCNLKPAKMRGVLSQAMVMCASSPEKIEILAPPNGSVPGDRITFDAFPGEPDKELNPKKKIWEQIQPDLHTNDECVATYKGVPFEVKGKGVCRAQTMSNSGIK
Assay: co-IP; transfected HEK 293 cells lysed in RIPA buffer after 36 hours; 2 µg antibody, 4°C, protein G; IgG as control; western blot

V5-tagged E2 made from core-E1-E2 expressed from one plasmid (hepatitis C virus 2a type (JFH1))
binding: binds

No constants are given. Whether binding was seen depends on the method and setting. Binding seen in cells or lysates may run through a third protein. A result given as binding can be weak or reduced; the word gives no strength.
